Reference: patent US20020132977A1

Assays:
Mdm2 [1] = test: summary of co-IP and pull-down results
Mdm2 [2] = test: anti-Flag IP from 293T lysates, anti-Mdm2 Western
[3] = biological target: GST-Mdm2 fusion protein, N-terminus of Mdm2; test: GST-Mdm2 pull-down from cell lysates, anti-p73 immunoblot
[4] = biological target: GST-Mdm2 fusion protein, full-length Mdm2; test: as above
Mdm2 [5] = test: anti-Flag IP from 293T lysates, anti-Mdm2 immunoblot

Measured: binding

B1: Flag-tagged p73β (protein, UniProt O15350-2 1-499, looked up, not shown: small tags and cut ends)
chain: MAQSTATSPDGGTTFEHLWSSLEPDSTYFDLPQSSRGNNEVVGGTDSSMDVFHLEGMTTSVMAQFNLLSSTMDQMSSRAASASPYTPEHAASVPTHSPYAQPSSTFDTMSPAPVIPSNTDYPGPHHFEVTFQQSSTAKSATWTYSPLLKKLYCQIAKTCPIQIKVSTPPPPGTAIRAMPVYKKAEHVTDVVKRCPNHELGRDFNEGQSAPASHLIRVEGNNLSQYVDDPVTGRQSVVVPYEPPQVGTEFTTILYNFMCNSSCVGGMNRRPILIIITLEMRDGQVLGRRSFEGRICACPGRDRKADEDHYREQQALNESSAKNGAASKRAFKQSPPAVPALGAGVKKRRHGDEDTYYLQVRGRENFEILMKLKESLELMELVPQPLVDSYRQQQQLLQRPSHLQPPSYGPVLSPMNKVHGGMNKLPSVNQLVGQPPPHSSAATPNLGPVGPGMLNNHGHAVPANGEMSSSHSAQSMVSGSHCTPPPPYHADPSLVRTWGP
binds: Mdm2 [1] | Mdm2 [2] | [3] | [4] | Mdm2 [5]

No constants are given. Whether binding was seen depends on the method and setting. Binding can be weak; no strength is given. Sequences can lack the tags named with a protein. For some assays here: In cells and extracts the contact can be indirect.
